No constants are given. Whether binding was seen depends on the method and setting. Binding seen in cells or lysates may run through a third protein. Here binding means that the protein was enriched with, or labelled near, the bait; the list need not be complete.
Biological target: T1, SE (bait of the IP-MS of SE complexes) (Arabidopsis) (UniProt Q9ZVD0)
T1 sequence: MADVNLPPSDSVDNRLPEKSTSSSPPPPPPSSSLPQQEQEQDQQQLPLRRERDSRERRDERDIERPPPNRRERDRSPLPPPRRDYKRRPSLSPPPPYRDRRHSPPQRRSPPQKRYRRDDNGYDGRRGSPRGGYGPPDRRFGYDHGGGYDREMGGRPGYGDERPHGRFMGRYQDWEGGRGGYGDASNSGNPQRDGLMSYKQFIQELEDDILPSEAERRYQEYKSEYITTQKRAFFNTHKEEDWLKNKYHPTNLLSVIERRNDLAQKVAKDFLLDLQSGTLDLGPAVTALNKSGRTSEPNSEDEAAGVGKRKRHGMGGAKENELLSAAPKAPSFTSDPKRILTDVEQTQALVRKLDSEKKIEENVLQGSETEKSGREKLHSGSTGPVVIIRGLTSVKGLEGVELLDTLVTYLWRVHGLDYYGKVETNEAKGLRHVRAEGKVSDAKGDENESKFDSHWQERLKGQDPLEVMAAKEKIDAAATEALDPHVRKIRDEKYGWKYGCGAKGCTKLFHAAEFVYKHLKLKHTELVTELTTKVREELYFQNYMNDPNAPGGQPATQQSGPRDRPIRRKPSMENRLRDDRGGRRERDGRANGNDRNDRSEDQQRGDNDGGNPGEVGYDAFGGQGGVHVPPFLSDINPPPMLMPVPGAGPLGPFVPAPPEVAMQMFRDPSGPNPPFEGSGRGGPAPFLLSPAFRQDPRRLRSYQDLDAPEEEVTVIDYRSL
Test: affinity purification with mass spectrometry

DSPPL9/SAID1 (recovered in the IP-MS of SE complexes) (Arabidopsis)
binding: binds
